Laboratory results as given in the supplement of paper PMC10849652.
This is one part of the list.

Sequences of proteins named here, by UniProt entry; tags and fusion partners are left off. A change or cut given only in a name is not applied to a line headed by its entry.
UniProt P78537: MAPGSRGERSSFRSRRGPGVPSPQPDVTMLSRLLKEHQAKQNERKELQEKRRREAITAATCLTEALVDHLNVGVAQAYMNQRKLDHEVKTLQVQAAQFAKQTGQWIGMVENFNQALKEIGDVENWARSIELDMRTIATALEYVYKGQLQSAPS
UniProt P54132: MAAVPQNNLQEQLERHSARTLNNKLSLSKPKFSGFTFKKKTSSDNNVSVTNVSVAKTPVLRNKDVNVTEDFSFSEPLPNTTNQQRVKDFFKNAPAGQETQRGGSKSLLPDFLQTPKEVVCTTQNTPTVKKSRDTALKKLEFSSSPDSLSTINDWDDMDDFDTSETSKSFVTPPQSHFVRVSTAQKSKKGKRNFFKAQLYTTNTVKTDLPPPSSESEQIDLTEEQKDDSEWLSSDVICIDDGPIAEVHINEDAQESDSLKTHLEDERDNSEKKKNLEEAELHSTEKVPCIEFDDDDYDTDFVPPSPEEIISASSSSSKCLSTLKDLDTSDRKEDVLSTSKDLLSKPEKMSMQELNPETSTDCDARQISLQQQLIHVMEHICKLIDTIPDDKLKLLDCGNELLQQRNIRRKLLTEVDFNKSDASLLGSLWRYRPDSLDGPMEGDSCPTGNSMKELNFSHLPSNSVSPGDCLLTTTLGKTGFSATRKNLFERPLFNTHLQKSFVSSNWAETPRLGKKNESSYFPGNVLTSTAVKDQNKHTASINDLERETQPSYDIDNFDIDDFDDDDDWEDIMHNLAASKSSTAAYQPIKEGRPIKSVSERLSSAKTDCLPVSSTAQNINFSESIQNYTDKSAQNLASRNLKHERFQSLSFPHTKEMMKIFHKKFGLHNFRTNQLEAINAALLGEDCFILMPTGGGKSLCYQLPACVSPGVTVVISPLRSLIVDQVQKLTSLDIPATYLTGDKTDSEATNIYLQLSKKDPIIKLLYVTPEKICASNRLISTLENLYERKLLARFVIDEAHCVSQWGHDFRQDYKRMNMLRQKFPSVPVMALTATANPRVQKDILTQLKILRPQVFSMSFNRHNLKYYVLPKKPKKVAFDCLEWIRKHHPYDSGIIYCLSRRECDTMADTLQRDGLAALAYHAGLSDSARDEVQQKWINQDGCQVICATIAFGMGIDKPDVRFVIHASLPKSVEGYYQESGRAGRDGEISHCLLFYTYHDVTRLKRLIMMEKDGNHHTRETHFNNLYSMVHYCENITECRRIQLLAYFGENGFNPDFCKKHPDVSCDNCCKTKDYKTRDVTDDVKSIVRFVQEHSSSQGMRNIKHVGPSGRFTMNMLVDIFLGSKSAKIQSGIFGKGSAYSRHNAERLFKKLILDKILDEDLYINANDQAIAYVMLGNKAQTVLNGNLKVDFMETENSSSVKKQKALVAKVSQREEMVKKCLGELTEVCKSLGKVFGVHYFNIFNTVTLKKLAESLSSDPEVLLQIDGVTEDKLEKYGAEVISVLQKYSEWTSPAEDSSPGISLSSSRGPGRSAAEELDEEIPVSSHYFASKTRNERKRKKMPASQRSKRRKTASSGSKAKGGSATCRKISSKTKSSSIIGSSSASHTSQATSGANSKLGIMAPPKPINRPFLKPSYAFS
UniProt P53004: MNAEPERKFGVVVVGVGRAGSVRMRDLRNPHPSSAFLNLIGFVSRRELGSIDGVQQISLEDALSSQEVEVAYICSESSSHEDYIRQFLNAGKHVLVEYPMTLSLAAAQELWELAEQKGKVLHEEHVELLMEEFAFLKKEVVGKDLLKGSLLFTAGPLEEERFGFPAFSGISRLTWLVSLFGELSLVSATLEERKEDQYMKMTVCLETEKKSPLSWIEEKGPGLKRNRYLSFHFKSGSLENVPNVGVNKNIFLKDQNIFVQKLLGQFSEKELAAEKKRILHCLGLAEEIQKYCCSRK
UniProt P30043: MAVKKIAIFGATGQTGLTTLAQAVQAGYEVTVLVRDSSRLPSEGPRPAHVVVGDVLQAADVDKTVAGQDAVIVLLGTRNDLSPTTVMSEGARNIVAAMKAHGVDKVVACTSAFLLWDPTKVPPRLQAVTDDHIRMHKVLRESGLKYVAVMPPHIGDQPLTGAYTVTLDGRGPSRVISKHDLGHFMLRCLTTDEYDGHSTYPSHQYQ
UniProt P43251: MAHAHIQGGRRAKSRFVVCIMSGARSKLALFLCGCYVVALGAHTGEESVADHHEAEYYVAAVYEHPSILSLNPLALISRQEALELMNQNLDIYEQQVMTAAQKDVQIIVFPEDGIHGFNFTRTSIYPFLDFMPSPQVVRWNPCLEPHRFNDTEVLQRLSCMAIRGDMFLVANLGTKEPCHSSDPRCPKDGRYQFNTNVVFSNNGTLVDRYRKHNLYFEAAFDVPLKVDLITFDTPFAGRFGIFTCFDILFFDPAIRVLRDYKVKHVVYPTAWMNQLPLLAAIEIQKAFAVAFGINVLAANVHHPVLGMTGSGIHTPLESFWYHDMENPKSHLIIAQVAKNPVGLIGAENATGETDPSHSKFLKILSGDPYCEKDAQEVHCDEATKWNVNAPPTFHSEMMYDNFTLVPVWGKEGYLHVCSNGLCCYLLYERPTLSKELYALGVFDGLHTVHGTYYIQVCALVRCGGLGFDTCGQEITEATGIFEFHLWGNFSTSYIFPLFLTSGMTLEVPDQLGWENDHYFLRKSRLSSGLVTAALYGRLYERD
UniProt Q9NSY1, whole entry, looked up: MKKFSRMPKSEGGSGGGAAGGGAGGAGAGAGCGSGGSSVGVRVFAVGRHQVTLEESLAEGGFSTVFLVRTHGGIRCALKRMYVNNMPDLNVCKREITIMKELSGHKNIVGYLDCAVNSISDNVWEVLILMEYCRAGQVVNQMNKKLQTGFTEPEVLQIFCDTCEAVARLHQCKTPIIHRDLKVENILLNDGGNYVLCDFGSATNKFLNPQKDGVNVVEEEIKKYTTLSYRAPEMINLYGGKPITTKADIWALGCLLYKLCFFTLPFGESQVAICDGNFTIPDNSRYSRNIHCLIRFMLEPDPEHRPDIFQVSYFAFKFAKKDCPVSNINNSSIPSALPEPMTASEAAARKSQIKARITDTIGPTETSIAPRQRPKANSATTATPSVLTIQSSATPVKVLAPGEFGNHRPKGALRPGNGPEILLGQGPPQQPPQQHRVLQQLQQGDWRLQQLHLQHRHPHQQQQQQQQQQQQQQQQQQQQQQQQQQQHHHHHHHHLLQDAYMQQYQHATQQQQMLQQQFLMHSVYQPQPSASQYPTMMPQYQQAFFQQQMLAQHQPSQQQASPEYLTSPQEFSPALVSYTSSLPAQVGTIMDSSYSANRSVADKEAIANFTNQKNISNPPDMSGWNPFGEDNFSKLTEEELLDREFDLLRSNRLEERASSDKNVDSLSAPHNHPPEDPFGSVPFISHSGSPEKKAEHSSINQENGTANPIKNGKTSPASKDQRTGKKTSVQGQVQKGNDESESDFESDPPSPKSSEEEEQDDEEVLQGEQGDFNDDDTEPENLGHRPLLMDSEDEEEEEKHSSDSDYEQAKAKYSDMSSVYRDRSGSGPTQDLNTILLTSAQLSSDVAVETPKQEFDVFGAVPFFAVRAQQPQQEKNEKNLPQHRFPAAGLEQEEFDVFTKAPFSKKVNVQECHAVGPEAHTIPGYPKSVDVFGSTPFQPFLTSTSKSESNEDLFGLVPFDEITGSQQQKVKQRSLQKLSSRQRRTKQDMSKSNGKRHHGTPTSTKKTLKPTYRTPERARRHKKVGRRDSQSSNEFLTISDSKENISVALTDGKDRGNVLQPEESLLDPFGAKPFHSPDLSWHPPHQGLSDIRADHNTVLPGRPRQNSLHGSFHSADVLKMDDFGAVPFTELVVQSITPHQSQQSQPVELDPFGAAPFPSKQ
UniProt Q10589, whole entry, looked up: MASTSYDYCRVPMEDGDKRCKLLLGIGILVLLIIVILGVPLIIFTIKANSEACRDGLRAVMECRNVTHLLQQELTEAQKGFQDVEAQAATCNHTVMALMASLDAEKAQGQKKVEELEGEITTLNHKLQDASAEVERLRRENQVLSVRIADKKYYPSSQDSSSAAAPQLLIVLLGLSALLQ
UniProt Q96G01: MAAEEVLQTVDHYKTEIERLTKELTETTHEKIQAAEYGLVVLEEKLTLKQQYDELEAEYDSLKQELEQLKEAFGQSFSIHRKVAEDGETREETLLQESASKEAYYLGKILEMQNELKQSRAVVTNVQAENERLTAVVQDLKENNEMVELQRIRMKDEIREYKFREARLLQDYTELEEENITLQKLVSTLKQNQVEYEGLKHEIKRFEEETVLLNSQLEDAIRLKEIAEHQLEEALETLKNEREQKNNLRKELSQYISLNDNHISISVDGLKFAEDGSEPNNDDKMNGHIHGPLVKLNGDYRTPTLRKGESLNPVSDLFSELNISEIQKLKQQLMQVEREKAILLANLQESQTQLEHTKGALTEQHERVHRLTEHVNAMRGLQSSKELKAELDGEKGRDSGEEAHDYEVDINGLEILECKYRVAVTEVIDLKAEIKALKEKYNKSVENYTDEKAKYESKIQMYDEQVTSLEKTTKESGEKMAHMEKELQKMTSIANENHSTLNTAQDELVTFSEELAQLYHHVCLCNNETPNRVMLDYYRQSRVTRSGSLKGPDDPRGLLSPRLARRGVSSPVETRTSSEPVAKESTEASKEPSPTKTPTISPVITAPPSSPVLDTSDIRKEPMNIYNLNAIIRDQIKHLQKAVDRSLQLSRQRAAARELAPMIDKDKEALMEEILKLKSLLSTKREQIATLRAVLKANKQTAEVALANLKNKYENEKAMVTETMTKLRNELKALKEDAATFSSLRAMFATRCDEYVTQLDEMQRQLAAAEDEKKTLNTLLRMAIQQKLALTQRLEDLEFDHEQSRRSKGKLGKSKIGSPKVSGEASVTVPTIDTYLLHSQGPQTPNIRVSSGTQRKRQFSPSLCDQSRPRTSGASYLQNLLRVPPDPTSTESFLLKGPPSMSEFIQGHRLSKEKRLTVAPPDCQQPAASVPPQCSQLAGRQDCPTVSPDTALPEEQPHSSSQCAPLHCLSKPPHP
UniProt P25440, whole entry, looked up: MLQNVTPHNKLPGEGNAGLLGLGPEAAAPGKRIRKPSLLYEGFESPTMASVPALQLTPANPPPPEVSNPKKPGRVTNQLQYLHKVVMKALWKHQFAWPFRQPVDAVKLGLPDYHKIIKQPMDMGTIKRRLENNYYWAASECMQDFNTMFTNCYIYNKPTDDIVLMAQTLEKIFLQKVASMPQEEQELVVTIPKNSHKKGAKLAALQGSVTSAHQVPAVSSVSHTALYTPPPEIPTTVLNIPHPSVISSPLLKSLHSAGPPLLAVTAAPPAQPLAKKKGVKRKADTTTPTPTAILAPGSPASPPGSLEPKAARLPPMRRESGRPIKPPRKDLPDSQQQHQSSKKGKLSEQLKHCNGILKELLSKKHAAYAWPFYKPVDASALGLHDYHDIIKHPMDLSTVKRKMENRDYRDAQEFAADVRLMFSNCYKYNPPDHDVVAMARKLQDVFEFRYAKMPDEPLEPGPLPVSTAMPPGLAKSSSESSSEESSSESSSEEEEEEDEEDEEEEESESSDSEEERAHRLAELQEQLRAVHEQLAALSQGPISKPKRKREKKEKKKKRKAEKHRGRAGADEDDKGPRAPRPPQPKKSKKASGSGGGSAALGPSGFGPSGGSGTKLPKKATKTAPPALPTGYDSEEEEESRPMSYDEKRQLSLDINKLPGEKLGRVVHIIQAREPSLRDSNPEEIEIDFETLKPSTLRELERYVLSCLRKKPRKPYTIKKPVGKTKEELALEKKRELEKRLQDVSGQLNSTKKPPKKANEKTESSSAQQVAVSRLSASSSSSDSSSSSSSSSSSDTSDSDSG
UniProt Q99728: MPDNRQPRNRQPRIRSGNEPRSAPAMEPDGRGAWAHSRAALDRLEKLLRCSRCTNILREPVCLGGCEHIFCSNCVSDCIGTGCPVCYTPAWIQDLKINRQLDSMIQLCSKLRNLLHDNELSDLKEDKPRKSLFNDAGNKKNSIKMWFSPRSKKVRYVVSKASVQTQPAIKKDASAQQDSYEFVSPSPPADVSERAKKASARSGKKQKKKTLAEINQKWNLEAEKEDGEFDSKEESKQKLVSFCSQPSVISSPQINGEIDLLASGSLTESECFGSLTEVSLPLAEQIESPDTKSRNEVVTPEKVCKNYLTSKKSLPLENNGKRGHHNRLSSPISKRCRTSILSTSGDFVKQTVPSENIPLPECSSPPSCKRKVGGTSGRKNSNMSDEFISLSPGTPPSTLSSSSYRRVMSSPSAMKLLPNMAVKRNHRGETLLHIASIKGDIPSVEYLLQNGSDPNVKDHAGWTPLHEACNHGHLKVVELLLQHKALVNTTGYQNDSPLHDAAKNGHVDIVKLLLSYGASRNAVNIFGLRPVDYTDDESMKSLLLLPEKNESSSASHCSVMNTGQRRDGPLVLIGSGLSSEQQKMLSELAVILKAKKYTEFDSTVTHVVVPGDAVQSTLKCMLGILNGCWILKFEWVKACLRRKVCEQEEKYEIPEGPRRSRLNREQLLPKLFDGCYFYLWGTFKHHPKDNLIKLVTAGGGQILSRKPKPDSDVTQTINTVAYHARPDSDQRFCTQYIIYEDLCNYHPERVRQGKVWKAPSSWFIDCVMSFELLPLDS

What was measured:
Experiment in all cases: log2 fold change, soluble protein after heating vs DMSO (PISA); higher = thermal stabilisation; K562 lysate, 10 uM; active = over 0.2 and 3.5 SD of the protein, either way, in both replicates (recomputed)
lapatinib = compound: CS(=O)(=O)CCNCc1ccc(-c2ccc3ncnc(Nc4ccc(OCc5cccc(F)c5)c(Cl)c4)c3c2)o1 [lapatinib]
How it was run: (§1)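 Soluble protein was defined as the supernatant remaining after 21,000xg for 90 min, following pooling of heated aliquots and adjustment to 0.5% NP-40 at 4°C. Before that, crude K562 extract at 1 mg/mL protein in PBS pH 7.4 with 1 mM MgCl2 was treated with 10 μM compound for 30 min and heated for 3 min across 48°C-58°C. Quantification used TMTpro 16plex LC-MS/MS with channel sums equalised, and values are log-two fold changes in thermal stability relative to solvent controls from duplicates.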

pictilisib = compound: CS(=O)(=O)N1CCN(Cc2cc3nc(-c4cccc5[nH]ncc45)nc(N4CCOCC4)c3s2)CC1 [pictilisib]
How it was run: as §1

crizotinib = compound: C[C@@H](Oc1cc(-c2cnn(C3CCNCC3)c2)cnc1N)c1c(Cl)ccc(F)c1Cl [crizotinib]
How it was run: as §1

[1] = compound: C[C@H](C1=CC=C(C=C1)C(=O)NC2=C3C=CNC3=NC=C2)N
How it was run: as §1

duvelisib = compound: C[C@H](Nc1ncnc2nc[nH]c12)c1cc2cccc(Cl)c2c(=O)n1-c1ccccc1 [duvelisib]
How it was run: as §1

gandotinib = compound: Cc1cc(Nc2cc(CN3CCOCC3)c3nc(C)c(Cc4ccc(Cl)cc4F)n3n2)n[nH]1 [gandotinib]
How it was run: as §1

tozasertib = compound: Cc1cc(Nc2cc(N3CCN(C)CC3)nc(Sc3ccc(NC(=O)C4CC4)cc3)n2)n[nH]1 [tozasertib]
How it was run: as §1

doramapimod = compound: Cc1ccc(-n2nc(C(C)(C)C)cc2NC(=O)Nc2ccc(OCCN3CCOCC3)c3ccccc23)cc1 [doramapimod]
How it was run: as §1

bafetinib = compound: Cc1ccc(NC(=O)c2ccc(CN3CC[C@H](N(C)C)C3)c(C(F)(F)F)c2)cc1Nc1nccc(-c2cncnc2)n1 [bafetinib]
How it was run: as §1

[2] = compound: Cc1cccc(CC(=O)N2CCc3c2ccc(-c2cn(C)c4ncnc(N)c24)c3F)n1
How it was run: as §1

nilotinib = compound: Cc1cn(-c2cc(NC(=O)c3ccc(C)c(Nc4nccc(-c5cccnc5)n4)c3)cc(C(F)(F)F)c2)cn1 [nilotinib]
How it was run: as §1

[3] = compound: Cc1nc(Nc2n[nH]c3c2CN(C(=O)N[C@H](CN(C)C)c2ccccc2)C3(C)C)c2sccc2n1
How it was run: as §1

dasatinib = compound: Cc1nc(Nc2ncc(C(=O)Nc3c(C)cccc3Cl)s2)cc(N2CCN(CCO)CC2)n1 [dasatinib]
How it was run: as §1

[4] = compound: Cc1ncc(-c2ccnc(Nc3ccc(S(C)(=O)=O)cc3)n2)n1C(C)C
How it was run: as §1

[5] = compound: Cn1cc(-c2ccc3c(c2)CCN3C(=O)Cc2cccc(C(F)(F)F)c2)c2c(N)ncnc21
How it was run: as §1

quisinostat = compound: Cn1cc(CNCC2CCN(c3ncc(C(=O)NO)cn3)CC2)c2ccccc21 [quisinostat]
How it was run: as §1

tipifarnib = compound: Cn1cncc1[C@@](N)(c1ccc(Cl)cc1)c1ccc2c(c1)c(-c1cccc(Cl)c1)cc(=O)n2C [tipifarnib]
How it was run: as §1

[6] = compound: NC(=O)Nc1cc(-c2cccc(F)c2)sc1C(=O)N[C@H]1CCCNC1
How it was run: as §1

[7] = compound: NC(=O)c1cnc(N[C@@H]2CCCC[C@@H]2N)nc1Nc1cccc(-n2nccn2)c1
How it was run: as §1

[8] = compound: NC1(c2ccc(-c3nc4ccn5c(=O)[nH]nc5c4cc3-c3ccccc3)cc2)CCC1
How it was run: as §1

Measured: log2 fold change

BLOC1S1 (UniProt P78537)
inactive: lapatinib 0.024 | pictilisib 0.033 | crizotinib 0.016 | [1] -0.008 | duvelisib 0.018 | gandotinib -0.035 | tozasertib 0.088 | doramapimod 0.033 | bafetinib -0.119 | [2] -0.03 | nilotinib 0.078 | [3] -0.028 | dasatinib 0.015 | [4] -0.11 | [5] -0.061 | quisinostat 0.06 | tipifarnib 0.031 | [6] -0.047 | [7] -0.031 | [8] -0.007

BCR (UniProt P11274)
inactive: lapatinib -0.02 | pictilisib -0.032 | crizotinib 0.034 | [1] -0.064 | duvelisib -0.049 | gandotinib -0.013 | tozasertib 0.031 | doramapimod -0.047 | bafetinib 0.019 | [2] 0.1 | nilotinib 0.108 | [3] 0.021 | dasatinib 0.043 | [4] -0.017 | [5] -0.018 | quisinostat -0.044 | tipifarnib -0.015 | [7] 0.028 | [8] 0.016

BLM (UniProt P54132)
active: gandotinib -0.267
inactive: lapatinib -0.007 | pictilisib -0.068 | crizotinib -0.003 | [1] 0.192 | duvelisib 0.018 | tozasertib 0.057 | doramapimod 0.018 | bafetinib -0.049 | [2] -0.251 | nilotinib -0.002 | [3] 0.014 | dasatinib -0.013 | [4] 0 | [5] 0.048 | quisinostat 0.109 | tipifarnib 0.041 | [6] -0.013 | [7] -0.025 | [8] 0.018

2 successive entries out of the list so far, for reference:
BLOC1S1 (UniProt P78537)
inactive: lapatinib 0.024 | pictilisib 0.033 | crizotinib 0.016 | [1] -0.008 | duvelisib 0.018 | gandotinib -0.035 | tozasertib 0.088 | doramapimod 0.033 | bafetinib -0.119 | [2] -0.03 | nilotinib 0.078 | [3] -0.028 | dasatinib 0.015 | [4] -0.11 | [5] -0.061 | quisinostat 0.06 | tipifarnib 0.031 | [6] -0.047 | [7] -0.031 | [8] -0.007

BCR (UniProt P11274)
inactive: lapatinib -0.02 | pictilisib -0.032 | crizotinib 0.034 | [1] -0.064 | duvelisib -0.049 | gandotinib -0.013 | tozasertib 0.031 | doramapimod -0.047 | bafetinib 0.019 | [2] 0.1 | nilotinib 0.108 | [3] 0.021 | dasatinib 0.043 | [4] -0.017 | [5] -0.018 | quisinostat -0.044 | tipifarnib -0.015 | [7] 0.028 | [8] 0.016

Remaining list, next part

BLVRA (UniProt P53004)
inactive: lapatinib -0.02 | pictilisib -0.018 | crizotinib -0.007 | [1] 0.021 | duvelisib 0.022 | gandotinib -0.055 | tozasertib -0.024 | doramapimod -0.018 | bafetinib -0.034 | [2] -0.017 | nilotinib 0.029 | [3] -0.024 | dasatinib -0.047 | [4] 0.011 | [5] 0.004 | quisinostat 0.001 | tipifarnib 0.018 | [6] 0 | [7] -0.004 | [8] -0.005

BLVRB (UniProt P30043)
inactive: lapatinib 0.004 | pictilisib 0.01 | crizotinib -0.035 | [1] -0.024 | duvelisib 0.042 | gandotinib -0.045 | tozasertib 0.03 | doramapimod 0.023 | bafetinib -0.001 | [2] 0.028 | nilotinib 0.032 | [3] -0.002 | dasatinib -0.034 | [4] 0.002 | [5] 0 | quisinostat -0.022 | tipifarnib -0.006 | [6] 0.025 | [7] 0.017 | [8] -0.047

BECN1 (UniProt Q14457)
inactive: lapatinib -0.019 | pictilisib 0.056 | crizotinib 0.002 | [1] 0.024 | duvelisib 0.105 | gandotinib 0.056 | tozasertib 0.027 | doramapimod 0.005 | bafetinib 0.032 | [2] -0.051 | nilotinib -0.025 | [3] -0.007 | dasatinib -0.016 | [4] 0.026 | [5] 0.068 | quisinostat -0.004 | tipifarnib -0.018 | [6] 0.063 | [7] 0.031 | [8] 0.082

BAG4 (UniProt O95429)
inactive: lapatinib 0.013 | pictilisib -0.174 | crizotinib 0.06 | [1] -0.056 | duvelisib 0.043 | gandotinib 0.102 | tozasertib 0.011 | doramapimod -0.043 | bafetinib -0.002 | [2] 0.004 | nilotinib -0.154 | [3] -0.039 | dasatinib 0.027 | [4] 0.014 | [5] 0.015 | quisinostat 0.019 | tipifarnib -0.011 | [6] 0.01 | [7] 0.018 | [8] 0.038

BAG3 (UniProt O95817)
inactive: lapatinib -0.014 | pictilisib -0.006 | crizotinib 0.047 | [1] 0.071 | duvelisib 0.009 | gandotinib -0.004 | tozasertib 0.019 | doramapimod -0.018 | bafetinib 0.017 | [2] -0.076 | nilotinib -0.013 | [3] 0.013 | dasatinib 0.021 | [4] -0.011 | [5] -0.01 | quisinostat 0.019 | tipifarnib 0.003 | [6] -0.004 | [7] -0.022 | [8] 0.06

BCL2L13 (UniProt Q9BXK5)
inactive: lapatinib 0.002 | pictilisib 0 | crizotinib 0.004 | [1] -0.04 | duvelisib 0.014 | gandotinib 0.003 | tozasertib -0.02 | doramapimod -0.006 | bafetinib -0.005 | [2] 0.06 | nilotinib -0.026 | [3] 0.03 | dasatinib 0.016 | [4] 0.018 | [5] -0.002 | quisinostat -0.007 | tipifarnib 0.001 | [6] -0.024 | [7] 0.012 | [8] -0.022

BTD isoform 3 (UniProt P43251)
inactive: lapatinib 0.029 | pictilisib 0.063 | crizotinib 0.035 | [1] -0.062 | duvelisib -0.006 | gandotinib 0.003 | tozasertib 0.057 | doramapimod -0.059 | bafetinib -0.044 | [2] 0.095 | dasatinib 0.121 | [5] 0.064 | quisinostat -0.003 | [6] 0.031 | [7] -0.016 | [8] 0.012

BMP2K (UniProt Q9NSY1)
inactive: lapatinib -0.106 | pictilisib 0.374 | crizotinib 0.595 | [1] 0.762 | duvelisib -0.012 | gandotinib 0.845 | tozasertib 0.391 | doramapimod -0.026 | bafetinib -0.041 | [2] -0.076 | nilotinib -0.015 | [3] 0.597 | dasatinib 0.084 | [4] 0.538 | [5] -0.026 | quisinostat -0.112 | tipifarnib -0.025 | [6] 0.748 | [7] 0.109 | [8] -0.011

BST2 (UniProt Q10589)
inactive: lapatinib -0.035 | pictilisib -0.021 | crizotinib 0.009 | [1] -0.055 | duvelisib -0.003 | gandotinib 0.032 | tozasertib -0.029 | doramapimod -0.008 | bafetinib -0.042 | [2] 0.027 | nilotinib 0.066 | [3] -0.02 | dasatinib 0.025 | [4] 0.009 | [5] 0.018 | quisinostat -0.02 | tipifarnib 0.053 | [6] 0.06 | [7] -0.014 | [8] 0.044

BICD1 (UniProt Q96G01)
inactive: lapatinib -0.016 | pictilisib 0.061 | crizotinib 0.04 | [1] -0.034 | duvelisib 0.028 | gandotinib 0.01 | tozasertib 0.056 | doramapimod -0.001 | bafetinib -0.041 | [2] 0.006 | nilotinib 0.008 | [3] -0.047 | dasatinib -0.02 | [4] 0.023 | [5] 0.007 | quisinostat 0.017 | tipifarnib 0.039 | [6] -0.006 | [7] 0.016 | [8] -0.006

BRD2 isoform 2 (UniProt P25440)
inactive: lapatinib 0.014 | pictilisib 0.012 | crizotinib 0.024 | [1] 0.128 | duvelisib -0.007 | gandotinib -0.133 | tozasertib 0 | doramapimod -0.084 | bafetinib -0.131 | [2] -0.186 | nilotinib 0.012 | [3] 0.15 | dasatinib 0.011 | [4] -0.024 | [5] -0.048 | quisinostat -0.028 | tipifarnib -0.035 | [6] 0.028 | [7] -0.161 | [8] -0.064

BARD1 (UniProt Q99728)
inactive: lapatinib -0.274 | pictilisib -0.004 | crizotinib -0.128 | [1] 0.083 | duvelisib 0.14 | gandotinib -0.193 | tozasertib 0.112 | doramapimod 0.09 | bafetinib -0.169 | [2] 0.146 | nilotinib 0.125 | [3] 0.005 | dasatinib -0.009 | [4] -0.112 | [5] -0.066 | quisinostat -0.078 | tipifarnib 0.031 | [6] -0.095 | [7] -0.338 | [8] 0.083
